Data: US20180344870A1
Results are given in words; binding and its absence hold for the method and conditions named. Some binding calls cover weakened binding; strength is not graded here.

Protein sequences, listed by entry. Tags and fused reporters are not part of them. Lines headed by an entry give the natural chain unless they say otherwise; changes in a name come on top. Residues count along the entry.
UniProt Q07011: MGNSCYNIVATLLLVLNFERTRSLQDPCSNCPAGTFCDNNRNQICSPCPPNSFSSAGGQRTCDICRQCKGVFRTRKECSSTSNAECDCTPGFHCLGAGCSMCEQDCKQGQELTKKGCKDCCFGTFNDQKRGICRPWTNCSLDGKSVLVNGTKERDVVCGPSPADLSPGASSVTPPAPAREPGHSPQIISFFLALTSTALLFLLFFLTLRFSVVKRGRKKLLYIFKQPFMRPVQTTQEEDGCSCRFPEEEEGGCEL
UniProt P41273, residues 71-254: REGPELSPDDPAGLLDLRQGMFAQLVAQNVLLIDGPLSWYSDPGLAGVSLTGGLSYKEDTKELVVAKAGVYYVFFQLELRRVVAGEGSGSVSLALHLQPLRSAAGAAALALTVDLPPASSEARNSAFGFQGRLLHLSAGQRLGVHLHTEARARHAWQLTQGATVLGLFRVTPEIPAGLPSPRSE

Tests used:
[1] = target: human CD137 (Acro Biosystem, 41B-H5227) (human) (UniProt Q07011); assay: SPR (BIAcore T200), 60 nM CD137L over captured preformed CD137/BA001-F(ab′)2 complex
[2] = target: human CD137 (Acro Biosystem, 41B-H5227) (human) (UniProt Q07011); assay: SPR (BIAcore T200), 200 nM CD137L over CD137 held by captured BA001-F(ab′)2
[3] = target: human CD137 (Acro Biosystem, 41B-H5227) (human) (UniProt Q07011); assay: SPR, CD137L over CD137/BA001-F(ab′)2 complex (FIGS. 2A and 2B)

Measured: binding

Recombinant Human 4-1BB Ligand/TNFSF9 (His-tag), R&D Systems 2295-4L-025 (from UniProt P41273 71-254)
binds: all assays above
